From US12077555B2, “STAT degraders and uses thereof” (Kymera Therapeutics, Inc., priority 2019, dated 2024)
The match of structure and compound is tentative.

Experiments:
SU-DHL-1 cells [1] = experiment: Effect on cell proliferation, cell cycle, apoptosis, cell death and STAT-3 expression in SU-DHL-1 cells (flow cytometry); format: cell-based
Method: I-103 was evaluated to determine its effect on viability, cell cycle, cell proliferation, apoptosis, and STAT-3 expression. SU-DHL-1 cells were cultured until sufficient cell numbers were obtained. Timepoints were staggered in order to harvest all cells simultaneously. On day 1, cells were seeded at 12,000 cells per well in five identical 96 well-plates. Test compounds at 5 μM, 0.5 μM, and 0.05 μM and controls were added to the wells designated for the 96-hour timepoint. Test compound addition was repeated on days 2-4 for the 72, 48, and 24-hour timepoints.
At day 5, the cells were evaluated for each of the five readouts listed above. Cell viability was determined by preferentially staining dead cells with 3 μM DAPI. Cell proliferation was measured by Ki-67 expression of fixed and permeabilized cells using the Foxp3/Transcription Factor Staining Buffer Set. Cell cycle analysis was performed with the PI/RNase Staining Solution on ethanol-fixed cells. Caspase-3 and PARP internal staining was used to determine the level of apoptosis. STAT-3 expression levels were determined with as described below, fixing cells with 1.6% PFA and permeabilizing with methanol in order to stain cells with a STAT-3 antibody. All plates were analyzed by flow cytometry.
Cell culture: SU-DHL-1 cells were cultured according to DSMZ recommendations for culture medium, passage frequency, and seeding density. Briefly, cells were seeded at 0.3×10^6 cells/mL and passaged every 2-3 days, not to exceed a cell density of 1.5×10^6/mL. SU-DHL-1 cells were cultured in RPMI 1640 medium supplemented with 10% FBS.
Co-culture cells and test compounds: SU-DHL-1 cells were harvested and the concentration was adjusted to 6.67×10^4 cells/mL. Cells were added to the wells according to the plate map below (FIG. 1). Each well received 180 μL of cells for a total of 12,000 cells/well, as determined by an optimal seeding density pilot performed prior to the initiation of this experiment.
A 20 mM DMSO stock solution of I-103 was prepared. I-103 was first prepared at 1000× in DMSO and then further diluted to 10× in RPMI supplemented with 10% HI-FBS. I-103 was added at a volume of 20 μL to the appropriate wells according to the plate maps. Controls were prepared as described in the table below (Table 85). Drug addition on days 2-4 followed the same protocol.
Evaluation of cells after culture with test compounds: At the conclusion of the 96-hour incubation, each plate was evaluated for one specific endpoint readout.
The viability plate was removed from the incubator, centrifuged and washed with 200 μL of DPBS. Cells were centrifuged and the supernatant was decanted. The cell pellet was resuspended in 120 μL of 3 μM DAPI solution. Cells were incubated for 10 minutes at room temperature, protected from light. After the incubation, cells were centrifuged again, decanted and resuspended in 120 μL of BD stain buffer and analyzed by flow cytometry to determine cell viability.
The PI/RNase plate was removed from the incubator, centrifuged and washed with 200 μL of DPBS. Cells were centrifuged and the supernatant was decanted. The cell pellet was resuspended in 60 μL of DPBS. Absolute ethanol was added at 140 μL per well and mixed well to fix cells. Cells were incubated for 10 minutes at 4° C. After the incubation, cells were centrifuged and washed twice with DPBS. […] Cells were analyzed by flow cytometry without washing. […]

SU-DHL-1 cells [2] = experiment: Caspase 3/7-Glo activity assay; conditions: read-out: Apoptosis, Caspase3/7-Glo IC50 (μM) at 48 hr; SU-DHL-1, 48 hr
Method: Determination of apoptosis was determined using a Caspase 3/7-Glo assay.
• 1—Prepare the Caspase-Glo® 3/7 Reagent (Promega cat #G8090) • Equilibrate the Caspase-Glo® 3/7 Buffer and lyophilized Caspase-Glo® 3/7 Substrate to room temperature before use. • Transfer the contents of the Caspase-Glo® 3/7 Buffer bottle into the amber bottle containing Caspase-Glo® 3/7 Substrate. • Mix by swirling or inverting the contents until the substrate is thoroughly dissolved to form the Caspase-Glo® 3/7 Reagent • Aliquot and store at −20 • 2—If thawing the reagent, allow it to equilibrate to room temperature. Mix well. • 3—Remove white-walled 384-well plate containing treated cells from the incubator and allow plates to equilibrate to room temperature. • 4—Add Caspase-Glo® 3/7 Reagent to each well of the plate at 1:1 ratio with media. Because of the sensitivity of this assay, be careful not to touch pipet tips to the wells containing samples to avoid cross-contamination. Cover the plate with a plate sealer or lid. • 5—Gently mix contents of wells using a plate shaker at 300-500 rpm for 30 seconds. Incubate at room temperature for 30-60 minutes. Note: Temperature fluctuations will affect the luminescence reading. • 6—Measure the luminescence of each sample in a plate-reading luminometer as directed by the luminometer manufacturer.

subG1 cells (FIG. 7D) = experiment: subG1 cells (FIG. 7D)
Method: FIG. 7 depicts the decrease in STAT3 observed at 24 hours treatment with I-103 (A), the time-dependent inhibition of proliferation with I-103 (B), the increase in activated Caspase 3 at 48 hours that leads to cell death with I-103 treatment (C), and increase in subG1 cells observed with I-103 treatment (D).

KI-JK cells = experiment: CellTiter-Glo cell viability, KI-JK
ALK+ALCL cell lines = experiment: growth inhibition in multiple ALK+ALCL cell lines; conditions: dose response curves, FIG. 16; tested form: diammonium
Description: FIG. 16 depicts dose response curves showing I-174 and I-94 mediated growth inhibition in multiple ALK+ALCL cell lines.

Compound	subG1 cells (PI/RNAse analysis, FACS) (SU-DHL-1 cells [1]; SU-DHL-1, 48, 72, and 96 hours, FIG. 7D)	STAT-3 expression (flow cytometry) (SU-DHL-1 cells [1]; SU-DHL-1, 24 hours, FIG. 7A)	apoptosis (SU-DHL-1 cells [1]; SU-DHL-1, 48 hours)	proliferation (Ki-67) (SU-DHL-1 cells [1]; SU-DHL-1, FIG. 7B)	activated Caspase 3 (SU-DHL-1 cells [1]; SU-DHL-1, FIG. 7C)	IC50 (SU-DHL-1 cells [2]) [µM]	subG1 cells (subG1 cells (FIG. 7D))	CTG (% Max inh), Day 4 (KI-JK cells; ALCL (ALK+), Day 4, tested form: diammonium)	cell proliferation (KI-JK cells; FIG. 16, tested form: diammonium)	IC50 (KI-JK cells; read-out: CTG, IC50 μM, Day 4, ALCL (ALK+), Day 4, tested form: diammonium) [µM]	growth inhibition in multiple ALK+ALCL cell lines (ALK+ALCL cell lines)
Cn1c(=O)n(C2CCC(=O)NC2=O)c2ccc(CCCCCCC(=O)N3CC[C@H]4CC[C@@H](C(=O)N[C@@H](CCC(N)=O)C(=O)NC(c5ccccc5)c5ccccc5)N4C(=O)[C@@H](NC(=O)c4cc5cc(C(=O)P(=O)(O)O)ccc5[nH]4)C3)cc21 (some centres unmarked)	increase in subG1 cells	decrease of STAT3 at 24 hours	induces apoptosis at 48 hours that leads to cell death	time-dependent inhibition of proliferation	increase in activated Caspase 3	0.38	increase in subG1 cells	–	–	–	–
Cc1ncsc1-c1ccc([C@H](C)NC(=O)[C@@H]2C[C@@H](O)CN2C(=O)[C@@H](NC(=O)CCCCc2ccc(CO[C@H](C)[C@H](CCC(N)=O)NC(=O)[C@@H]3Cc4cccc5c4N3C(=O)[C@@H](NC(=O)c3cc4cc(C(=O)P(=O)(O)O)ccc4[nH]3)CC5)cc2)C(C)(C)C)cc1 [Compound I-227]	–	–	–	–	–	–	–	(110) %	inhibit	0.102	mediated growth inhibition
